Results taken from paper PMC8717606.

Amino acid sequences for entries named in this document (tags omitted). A change or cut given only in a name is not applied to a line headed by its entry. Chains listed by the source or under a name are the forms on record and can include a tag or linker. Residues count along the entry.
UniProt P24001: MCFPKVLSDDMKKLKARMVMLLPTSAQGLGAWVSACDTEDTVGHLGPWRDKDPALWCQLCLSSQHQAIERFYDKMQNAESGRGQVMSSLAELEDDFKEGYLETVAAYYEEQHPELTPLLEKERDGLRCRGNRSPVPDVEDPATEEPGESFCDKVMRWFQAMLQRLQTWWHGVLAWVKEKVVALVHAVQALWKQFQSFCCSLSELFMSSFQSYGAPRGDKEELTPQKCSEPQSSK
UniProt Q15904, residues 42-470: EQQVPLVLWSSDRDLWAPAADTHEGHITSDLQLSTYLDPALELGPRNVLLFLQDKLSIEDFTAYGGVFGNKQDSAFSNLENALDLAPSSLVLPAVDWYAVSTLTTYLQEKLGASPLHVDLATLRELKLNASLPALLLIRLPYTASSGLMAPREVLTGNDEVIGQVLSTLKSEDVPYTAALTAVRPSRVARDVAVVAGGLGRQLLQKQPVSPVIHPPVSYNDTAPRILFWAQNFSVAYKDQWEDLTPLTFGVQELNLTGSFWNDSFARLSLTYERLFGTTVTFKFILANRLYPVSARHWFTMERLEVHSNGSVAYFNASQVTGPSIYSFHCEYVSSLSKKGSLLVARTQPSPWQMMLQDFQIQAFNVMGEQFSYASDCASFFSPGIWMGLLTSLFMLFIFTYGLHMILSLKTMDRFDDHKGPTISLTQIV
V-type proton ATPase 116 kDa subunit a isoform 1 (Q93050-1, form named): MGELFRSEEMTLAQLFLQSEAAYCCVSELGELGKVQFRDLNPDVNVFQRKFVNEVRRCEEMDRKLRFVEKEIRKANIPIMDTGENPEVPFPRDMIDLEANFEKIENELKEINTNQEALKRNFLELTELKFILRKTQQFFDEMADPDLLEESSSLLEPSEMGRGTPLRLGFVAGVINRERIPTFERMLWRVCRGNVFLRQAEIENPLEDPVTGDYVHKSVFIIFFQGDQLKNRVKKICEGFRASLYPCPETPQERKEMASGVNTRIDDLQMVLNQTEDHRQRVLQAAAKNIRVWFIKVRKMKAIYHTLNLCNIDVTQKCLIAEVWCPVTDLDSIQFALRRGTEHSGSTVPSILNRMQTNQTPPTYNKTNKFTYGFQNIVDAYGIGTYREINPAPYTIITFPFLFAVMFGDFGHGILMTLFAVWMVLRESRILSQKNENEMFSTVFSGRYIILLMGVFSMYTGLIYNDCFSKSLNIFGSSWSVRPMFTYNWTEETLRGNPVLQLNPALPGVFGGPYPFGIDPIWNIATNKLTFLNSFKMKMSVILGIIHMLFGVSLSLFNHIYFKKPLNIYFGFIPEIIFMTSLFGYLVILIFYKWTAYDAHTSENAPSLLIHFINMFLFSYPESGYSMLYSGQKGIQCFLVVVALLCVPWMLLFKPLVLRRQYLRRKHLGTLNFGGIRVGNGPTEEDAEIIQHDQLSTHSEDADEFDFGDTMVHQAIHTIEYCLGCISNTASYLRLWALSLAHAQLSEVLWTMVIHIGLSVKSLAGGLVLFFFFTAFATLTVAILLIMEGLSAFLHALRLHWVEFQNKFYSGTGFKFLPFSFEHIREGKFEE
UniProt P10321, residues 25-366: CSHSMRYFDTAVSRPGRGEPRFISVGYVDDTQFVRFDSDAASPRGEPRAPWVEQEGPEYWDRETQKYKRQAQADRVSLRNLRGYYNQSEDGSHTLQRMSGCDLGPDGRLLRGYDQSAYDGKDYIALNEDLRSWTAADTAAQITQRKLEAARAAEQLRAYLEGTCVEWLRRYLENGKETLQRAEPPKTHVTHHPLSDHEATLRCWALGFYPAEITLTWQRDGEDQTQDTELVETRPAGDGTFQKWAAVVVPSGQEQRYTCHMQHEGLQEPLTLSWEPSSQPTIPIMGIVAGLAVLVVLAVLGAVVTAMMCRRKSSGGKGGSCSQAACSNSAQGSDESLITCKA
UniProt Q9NPD3: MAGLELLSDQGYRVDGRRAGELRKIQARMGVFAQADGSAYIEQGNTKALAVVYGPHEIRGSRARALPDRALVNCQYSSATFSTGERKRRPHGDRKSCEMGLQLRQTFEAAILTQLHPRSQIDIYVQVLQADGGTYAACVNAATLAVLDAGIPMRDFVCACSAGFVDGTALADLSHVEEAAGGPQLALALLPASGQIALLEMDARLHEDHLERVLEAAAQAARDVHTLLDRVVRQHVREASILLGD
UniProt Q9UI09: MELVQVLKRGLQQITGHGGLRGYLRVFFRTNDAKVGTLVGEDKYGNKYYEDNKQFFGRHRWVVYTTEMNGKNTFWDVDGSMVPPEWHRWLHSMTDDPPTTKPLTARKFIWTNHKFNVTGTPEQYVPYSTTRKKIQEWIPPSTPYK
UniProt P33908: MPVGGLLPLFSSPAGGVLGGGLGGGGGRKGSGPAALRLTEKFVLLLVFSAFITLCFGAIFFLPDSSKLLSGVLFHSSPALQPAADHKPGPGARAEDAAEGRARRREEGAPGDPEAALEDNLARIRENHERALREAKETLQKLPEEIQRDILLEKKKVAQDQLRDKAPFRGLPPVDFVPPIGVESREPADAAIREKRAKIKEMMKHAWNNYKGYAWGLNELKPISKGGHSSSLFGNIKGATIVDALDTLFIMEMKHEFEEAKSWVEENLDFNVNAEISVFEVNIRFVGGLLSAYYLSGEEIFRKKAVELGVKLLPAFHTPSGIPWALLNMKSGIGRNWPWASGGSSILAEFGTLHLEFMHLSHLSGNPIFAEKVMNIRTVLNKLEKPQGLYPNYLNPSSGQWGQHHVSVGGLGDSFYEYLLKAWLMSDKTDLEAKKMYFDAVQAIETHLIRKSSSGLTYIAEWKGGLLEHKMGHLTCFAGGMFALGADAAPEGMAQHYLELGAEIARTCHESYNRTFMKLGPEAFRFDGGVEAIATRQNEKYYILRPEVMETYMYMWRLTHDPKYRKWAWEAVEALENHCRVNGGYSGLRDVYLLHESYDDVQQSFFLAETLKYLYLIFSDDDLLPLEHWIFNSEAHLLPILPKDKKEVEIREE
UniProt Q09470: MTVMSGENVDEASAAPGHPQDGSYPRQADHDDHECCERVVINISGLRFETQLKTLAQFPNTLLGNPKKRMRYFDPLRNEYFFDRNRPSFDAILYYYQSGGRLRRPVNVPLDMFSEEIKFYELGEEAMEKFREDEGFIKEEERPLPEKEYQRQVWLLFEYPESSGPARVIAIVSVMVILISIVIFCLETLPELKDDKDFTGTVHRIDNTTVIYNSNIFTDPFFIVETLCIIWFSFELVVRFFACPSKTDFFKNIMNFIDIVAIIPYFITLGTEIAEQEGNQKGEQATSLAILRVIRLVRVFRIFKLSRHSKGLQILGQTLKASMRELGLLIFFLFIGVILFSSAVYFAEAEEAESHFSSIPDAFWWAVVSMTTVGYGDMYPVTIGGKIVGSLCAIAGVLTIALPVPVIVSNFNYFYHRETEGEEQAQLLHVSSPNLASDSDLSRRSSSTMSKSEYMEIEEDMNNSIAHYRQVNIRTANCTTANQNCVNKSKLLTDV
UniProt Q9Y2Q5: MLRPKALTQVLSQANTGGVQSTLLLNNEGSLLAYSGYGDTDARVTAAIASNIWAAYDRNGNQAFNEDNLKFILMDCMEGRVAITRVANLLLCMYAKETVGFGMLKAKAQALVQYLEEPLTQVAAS
UniProt Q02127: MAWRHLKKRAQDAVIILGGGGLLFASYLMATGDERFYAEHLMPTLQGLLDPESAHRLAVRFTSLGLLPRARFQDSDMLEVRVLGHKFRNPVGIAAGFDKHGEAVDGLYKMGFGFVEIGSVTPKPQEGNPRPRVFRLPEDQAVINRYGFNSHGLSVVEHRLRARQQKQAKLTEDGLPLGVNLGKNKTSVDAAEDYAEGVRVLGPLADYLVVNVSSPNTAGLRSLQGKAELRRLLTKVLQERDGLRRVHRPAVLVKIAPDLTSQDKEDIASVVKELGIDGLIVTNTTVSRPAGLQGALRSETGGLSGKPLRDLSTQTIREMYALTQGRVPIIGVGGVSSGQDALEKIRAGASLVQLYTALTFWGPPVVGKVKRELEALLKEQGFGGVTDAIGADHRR

B1: Chloride voltage-gated channel 5 (CLCN5) (protein, UniProt P51795 1-816)
chain: MAMWQGAMDNRGFQQGSFSSFQNSSSDEDLMDIPATAMDFSMRDDVPPLDREVGEDKSYNGGGIGSSNRIMDFLEEPIPGVGTYDDFNTIDWVREKSRDRDRHREITNKSKESTWALIHSVSDAFSGWLLMLLIGLLSGSLAGLIDISAHWMTDLKEGICTGGFWFNHEHCCWNSEHVTFEERDKCPEWNSWSQLIISTDEGAFAYIVNYFMYVLWALLFAFLAVSLVKVFAPYACGSGIPEIKTILSGFIIRGYLGKWTLVIKTITLVLAVSSGLSLGKEGPLVHVACCCGNILCHCFNKYRKNEAKRREVLSAAAAAGVSVAFGAPIGGVLFSLEEVSYYFPLKTLWRSFFAALVAAFTLRSINPFGNSRLVLFYVEFHTPWHLFELVPFILLGIFGGLWGALFIRTNIAWCRKRKTTQLGKYPVIEVLVVTAITAILAFPNEYTRMSTSELISELFNDCGLLDSSKLCDYENRFNTSKGGELPDRPAGVGVYSAMWQLALTLILKIVITIFTFGMKIPSGLFIPSMAVGAIAGRLLGVGMEQLAYYHQEWTVFNSWCSQGADCITPGLYAMVGAAACLGGVTRMTVSLVVIMFELTGGLEYIVPLMAAAMTSKWVADALGREGIYDAHIRLNGYPFLEAKEEFAHKTLAMDVMKPRRNDPLLTVLTQDSMTVEDVETIISETTYSGFPVVVSRESQRLVGFVLRRDLIISIENARKKQDGVVSTSIIYFTEHSPPLPPYTPPTLKLRNILDLSPFTVTDLTPMEIVVDIFRKLGLRQCLVTHNGRLLGIITKKDVLKHIAQMANQDPDSILFN
B2: Transglutaminase 3 (TGM3) (protein, UniProt Q08188 1-693)
chain: MAALGVQSINWQTAFNRQAHHTDKFSSQELILRRGQNFQVLMIMNKGLGSNERLEFIVSTGPYPSESAMTKAVFPLSNGSSGGWSAVLQASNGNTLTISISSPASAPIGRYTMALQIFSQGGISSVKLGTFILLFNPWLNVDSVFMGNHAEREEYVQEDAGIIFVGSTNRIGMIGWNFGQFEEDILSICLSILDRSLNFRRDAATDVASRNDPKYVGRVLSAMINSNDDNGVLAGNWSGTYTGGRDPRSWNGSVEILKNWKKSGFSPVRYGQCWVFAGTLNTALRSLGIPSRVITNFNSAHDTDRNLSVDVYYDPMGNPLDKGSDSVWNFHVWNEGWFVRSDLGPSYGGWQVLDATPQERSQGVFQCGPASVIGVREGDVQLNFDMPFIFAEVNADRITWLYDNTTGKQWKNSVNSHTIGRYISTKAVGSNARMDVTDKYKYPEGSDQERQVFQKALGKLKPNTPFAATSSMGLETEEQEPSIIGKLKVAGMLAVGKEVNLVLLLKNLSRDTKTVTVNMTAWTIIYNGTLVHEVWKDSATMSLDPEEEAEHPIKISYAQYEKYLKSDNMIRITAVCKVPDESEVVVERDIILDNPTLTLEVLNEARVRKPVNVQMLFSNPLDEPVRDCVLMVEGSGLLLGNLKIDVPTLGPKEGSRVRFDILPSRSGTKQLLADFSCNKFPAIKAMLSIDVAE
B3: ATP synthase, H+ transporting, mitochondrial F1 complex, epsilon subunit pseudogene 2 (ATP5EP2) (protein, UniProt Q5VTU8 1-51)
chain: MVAYWRQAGLSYIRYSQICAKVVRDALKTEFKANAKKTSGNSVKIVKVKKE
B4: LMBR1 domain containing 2 (LMBRD2) (protein, UniProt Q68DH5 1-695)
chain: MSGAALGLEIVFVFFLALFLLHRYGDFKKQHRLVIIGTLLAWYLCFLIVFILPLDVSTTIYNRCKHAAANSSPPENSNITGLYATANPVPSQHPCFKPWSYIPDGIMPIFWRVVYWTSQFLTWILLPFMQSYARSGGFSITGKIKTALIENAIYYGTYLLIFGAFLIYVAVNPHLHLEWNQLQTIGIAAANTWGLFLLVLLLGYGLVEIPRSYWNGAKRGYLLMKTYFKAAKLMTEKADAEENLEDAMEEVRKVNESIKYNHPLRKCVDTILKKCPTEYQEKMGRNMDDYEDFDEKHSIYPSEKSLVKLHKQVIYSVQRHRRTQVQWQILLEQAFYLEDVAKNETSATHQFVHTFQSPEPENRFIQYFYNPTFEWYWECLLRPWFYKILAVVLSIFSVIVVWSECTFFSTTPVLSLFAVFIQLAEKTYNYIYIEIACFLSIFFLSICVYSTVFRIRVFNYYYLASHHQTDAYSLLFSGMLFCRLTPPLCLNFLGLTHMDSSISHKNTQPTAYTSIMGSMKVLSFIADGFYIYYPMLVVILCIATYFSLGTRCLNLLGFQQFMGDDDMTSDLVNEGKELIRKEKRKRQRQEEGENRRREWKERYGHNREDSTRNRNIHTDPKESNFSDVNTNRSAFKYTRANNRTERDRIELLQDAEPLDFNAETFTDDPLESESGRYQPGGRYLSMSRSDIFNDV
B5: ELOVL fatty acid elongase 1 (ELOVL1) (protein, UniProt Q9BW60 1-279)
chain: MEAVVNLYQEVMKHADPRIQGYPLMGSPLLMTSILLTYVYFVLSLGPRIMANRKPFQLRGFMIVYNFSLVALSLYIVYEFLMSGWLSTYTWRCDPVDYSNSPEALRMVRVAWLFLFSKFIELMDTVIFILRKKDGQVTFLHVFHHSVLPWSWWWGVKIAPGGMGSFHAMINSSVHVIMYLYYGLSAFGPVAQPYLWWKKHMTAIQLIQFVLVSLHISQYYFMSSCNYQYPVIIHLIWMYGTIFFMLFSNFWYHSYTKGKRLPRALQQNGAPGIAKVKAN
B6: Transmembrane protein 59 (TMEM59) (protein, UniProt Q9BXS4 36-323)
chain: EAFDSVLGDTASCHRACQLTYPLHTYPKEEELYACQRGCRLFSICQFVDDGIDLNRTKLECESACTEAYSQSDEQYACHLGCQNQLPFAELRQEQLMSLMPKMHLLFPLTLVRSFWSDMMDSAQSFITSSWTFYLQADDGKIVIFQSKPEIQYAPHLEQEPTNLRESSLSKMSYLQMRNSQAHRNFLEDGESDGFLRCLSLNSGWILTTTLVLSVMVLLWICCATVATAVEQYVPSEKLSIYGDLEFMNEQKLNRYPASSLVVVRSKTEDHEEAGPLPTKVNLAHSEI
B7: ATP binding cassette subfamily B member 6 (Langereis blood group) (ABCB6) (protein, UniProt Q9NP58 1-842)
chain: MVTVGNYCEAEGPVGPAWMQDGLSPCFFFTLVPSTRMALGTLALVLALPCRRRERPAGADSLSWGAGPRISPYVLQLLLATLQAALPLAGLAGRVGTARGAPLPSYLLLASVLESLAGACGLWLLVVERSQARQRLAMGIWIKFRHSPGLLLLWTVAFAAENLALVSWNSPQWWWARADLGQQVQFSLWVLRYVVSGGLFVLGLWAPGLRPQSYTLQVHEEDQDVERSQVRSAAQQSTWRDFGRKLRLLSGYLWPRGSPALQLVVLICLGLMGLERALNVLVPIFYRNIVNLLTEKAPWNSLAWTVTSYVFLKFLQGGGTGSTGFVSNLRTFLWIRVQQFTSRRVELLIFSHLHELSLRWHLGRRTGEVLRIADRGTSSVTGLLSYLVFNVIPTLADIIIGIIYFSMFFNAWFGLIVFLCMSLYLTLTIVVTEWRTKFRRAMNTQENATRARAVDSLLNFETVKYYNAESYEVERYREAIIKYQGLEWKSSASLVLLNQTQNLVIGLGLLAGSLLCAYFVTEQKLQVGDYVLFGTYIIQLYMPLNWFGTYYRMIQTNFIDMENMFDLLKEETEVKDLPGAGPLRFQKGRIEFENVHFSYADGRETLQDVSFTVMPGQTLALVGPSGAGKSTILRLLFRFYDISSGCIRIDGQDISQVTQASLRSHIGVVPQDTVLFNDTIADNIRYGRVTAGNDEVEAAAQAAGIHDAIMAFPEGYRTQVGERGLKLSGGEKQRVAIARTILKAPGIILLDEATSALDTSNERAIQASLAKVCANRTTIVVAHRLSTVVNADQILVIKDGCIVERGRHEALLSRGGVYADMWQLQQGQEETSEDTKPQTMER
B8: ATP binding cassette subfamily B member 10 (ABCB10) (protein, UniProt Q9NRK6 106-738)
chain: AGPGAPRLPRARFPGGPAAAAWAGDEAWRRGPAAPPGDKGRLRPAAAGLPEARKLLGLAYPERRRLAAAVGFLTMSSVISMSAPFFLGKIIDVIYTNPTVDYSDNLTRLCLGLSAVFLCGAAANAIRVYLMQTSGQRIVNRLRTSLFSSILRQEVAFFDKTRTGELINRLSSDTALLGRSVTENLSDGLRAGAQASVGISMMFFVSPNLATFVLSVVPPVSIIAVIYGRYLRKLTKVTQDSLAQATQLAEERIGNVRTVRAFGKEMTEIEKYASKVDHVMQLARKEAFARAGFFGATGLSGNLIVLSVLYKGGLLMGSAHMTVGELSSFLMYAFWVGISIGGLSSFYSELMKGLGAGGRLWELLEREPKLPFNEGVILNEKSFQGALEFKNVHFAYPARPEVPIFQDFSLSIPSGSVTALVGPSGSGKSTVLSLLLRLYDPASGTISLDGHDIRQLNPVWLRSKIGTVSQEPILFSCSIAENIAYGADDPSSVTAEEIQRVAEVANAVAFIRNFPQGFNTVVGEKGVLLSGGQKQRIAIARALLKNPKILLLDEATSALDAENEYLVQEALDRLMDGRTVLVIAHRLSTIKNANMVAVLDQGKITEYGKHEELLSKPNGIYRKLMNKQSFISA
B9: Immediate early response 3 interacting protein 1 (IER3IP1) (protein, UniProt Q9Y5U9 1-82)
chain: MAFTLYSLLQAALLCVNAIAVLHEERFLKNIGWGTDQGIGGFGEEPGIKSQLMNLIRSVRTVMRVPLIIVNSIAIVLLLLFG

Target: Interleukin 32 (IL32) (Homo sapiens) (UniProt P24001)
Assay: affinity purification with mass spectrometry; endogenous IL-32 precipitated with IL-32 antibody (R&D) coupled to M-270 Dynabeads from pre-cleared lysates (1% CHAPS, 50 mM Tris, 150 mM NaCl) of JJN-3 cells kept 24 h in hypoxia (2% O2); 2 h at 4°C, 4 washes with PBS; IL-32 KO cells as control; 5 replicates

binding, binds:
ATPase H+ transporting accessory protein 1 (ATP6AP1) (from UniProt Q15904 42-470)
Major histocompatibility complex, class I, B (HLA-B) (from UniProt P01889 25-362)
V-type proton ATPase 116 kDa subunit a isoform 1 (from UniProt Q93050-1 1-831)
Major histocompatibility complex, class I C (HLA-C) (from UniProt P10321 25-366)
Exosome component 4 (EXOSC4) (from UniProt Q9NPD3 1-245)
NADH:ubiquinone oxidoreductase subunit A12 (NDUFA12) (from UniProt Q9UI09 1-145)
Mannosidase alpha class 1A member 1 (MAN1A1) (from UniProt P33908 1-653)
Proteasome subunit alpha type-3 (from UniProt P25788-1 1-255)
Kinase D-interacting substrate of 220 kDa (from UniProt Q9ULH0-1 1-1771)
Potassium voltage-gated channel subfamily A member 1 (KCNA1) (from UniProt Q09470 1-495)
Late endosomal/lysosomal adaptor, MAPK and MTOR activator 2 (LAMTOR2) (from UniProt Q9Y2Q5 1-125)
Dihydroorotate dehydrogenase (quinone) (DHODH) (from UniProt Q02127 1-395)
B1
B2
B3
B4
B5
B6
B7
B8
B9

Results are given in words; binding and its absence hold for the method and conditions named. In cells and extracts the contact can be indirect. A yes stands for co-enrichment or nearness to the bait. Other partners may have been found. Tags and fused reporters may be left off the sequences shown.
